Reference: PMC4605787
These are yes or no findings as the source states them, for the method shown. Binding seen in cells or lysates may run through a third protein. Some entries that bind do so weakly or less than the wild type.

Sequences of proteins named here, by UniProt entry; tags and fusion partners are left off.
UniProt P47197: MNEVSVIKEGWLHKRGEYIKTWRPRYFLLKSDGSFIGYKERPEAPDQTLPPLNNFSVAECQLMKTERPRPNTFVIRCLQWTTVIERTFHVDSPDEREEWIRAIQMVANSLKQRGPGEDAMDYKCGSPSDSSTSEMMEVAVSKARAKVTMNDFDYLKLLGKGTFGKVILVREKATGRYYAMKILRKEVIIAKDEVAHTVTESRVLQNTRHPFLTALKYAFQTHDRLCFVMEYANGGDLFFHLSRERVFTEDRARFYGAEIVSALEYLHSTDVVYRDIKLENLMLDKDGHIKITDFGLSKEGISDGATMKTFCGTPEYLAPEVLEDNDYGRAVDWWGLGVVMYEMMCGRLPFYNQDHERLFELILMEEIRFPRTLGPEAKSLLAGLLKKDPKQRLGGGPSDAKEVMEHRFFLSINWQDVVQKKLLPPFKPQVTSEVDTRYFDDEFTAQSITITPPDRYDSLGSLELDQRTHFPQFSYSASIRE
UniProt Q62868: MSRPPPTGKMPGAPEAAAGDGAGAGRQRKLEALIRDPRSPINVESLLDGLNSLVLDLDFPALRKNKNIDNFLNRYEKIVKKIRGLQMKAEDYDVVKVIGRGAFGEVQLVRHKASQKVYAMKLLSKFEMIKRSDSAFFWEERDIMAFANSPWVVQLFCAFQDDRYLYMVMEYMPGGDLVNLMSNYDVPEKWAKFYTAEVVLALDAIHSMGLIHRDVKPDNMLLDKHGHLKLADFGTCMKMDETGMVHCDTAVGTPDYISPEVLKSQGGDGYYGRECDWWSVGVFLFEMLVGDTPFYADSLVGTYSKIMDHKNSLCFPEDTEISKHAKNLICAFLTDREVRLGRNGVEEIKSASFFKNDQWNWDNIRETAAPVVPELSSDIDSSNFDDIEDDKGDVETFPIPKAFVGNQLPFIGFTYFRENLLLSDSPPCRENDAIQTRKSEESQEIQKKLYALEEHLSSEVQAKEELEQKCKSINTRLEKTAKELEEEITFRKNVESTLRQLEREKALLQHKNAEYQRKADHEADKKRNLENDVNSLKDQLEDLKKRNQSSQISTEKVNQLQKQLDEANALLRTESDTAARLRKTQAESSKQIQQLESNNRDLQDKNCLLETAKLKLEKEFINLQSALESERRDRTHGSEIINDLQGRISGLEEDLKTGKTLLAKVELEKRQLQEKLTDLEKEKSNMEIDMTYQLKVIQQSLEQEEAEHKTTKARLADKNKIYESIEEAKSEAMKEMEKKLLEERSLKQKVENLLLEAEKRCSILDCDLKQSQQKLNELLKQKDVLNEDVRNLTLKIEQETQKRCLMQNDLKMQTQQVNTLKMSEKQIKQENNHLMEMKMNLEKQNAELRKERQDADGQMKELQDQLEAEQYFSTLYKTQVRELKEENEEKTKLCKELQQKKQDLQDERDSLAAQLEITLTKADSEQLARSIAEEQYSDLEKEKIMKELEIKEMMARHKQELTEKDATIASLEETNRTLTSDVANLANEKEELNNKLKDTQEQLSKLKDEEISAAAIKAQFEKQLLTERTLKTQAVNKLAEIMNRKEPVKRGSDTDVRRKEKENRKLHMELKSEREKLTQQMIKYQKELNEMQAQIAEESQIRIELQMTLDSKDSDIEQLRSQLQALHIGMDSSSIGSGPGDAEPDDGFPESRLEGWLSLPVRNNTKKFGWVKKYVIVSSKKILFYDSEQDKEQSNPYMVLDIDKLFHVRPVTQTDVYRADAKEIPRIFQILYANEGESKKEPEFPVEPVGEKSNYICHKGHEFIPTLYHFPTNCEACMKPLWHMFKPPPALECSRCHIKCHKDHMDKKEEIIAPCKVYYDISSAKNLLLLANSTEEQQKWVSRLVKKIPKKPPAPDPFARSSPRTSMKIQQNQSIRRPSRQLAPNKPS

Target: Akt2 (rat (endogenous in L6 myoblasts)) (UniProt P47197)
Experiment: co-IP; endogenous Akt2 immunoprecipitated with anti-Akt2 (NIgG as control) from 1 mg L6 myoblast lysate; cells serum-starved 4 h, with or without 100 nM insulin for 15 min at 37°C; western blot with anti-Akt2 and anti-ROCK2

Rho-associated protein kinase 2 (from UniProt Q62868 1-1388)
binding: binds
